Data from patent publication US20140370521A1, “IDENTIFICATION OF TWO NOVEL BIOMARKERS FOR NIEMANN-PICK DISEASE TYPE C” (The USA , as Represented by the Secretary, Department of …, priority 2011, published 2014).

System: Npc1-/- mouse liver
Experiment: Liver gene expression microarray, Npc1-/- versus control mice (Affymetrix Mouse GeneChip 1.0 ST)
Settings: negative = lower in Npc1−/−
[1] = head prints "weeks" (column between 7 weeks and 11 weeks)

Molecule | FC (fold-change of expression between Npc1−/− and control mice) (5 weeks of age) | FC (fold-change of expression between Npc1−/− and control mice) (7 weeks of age) | FC (fold-change of expression between Npc1−/− and control mice) (11 weeks of age) | FC (fold-change of expression between Npc1−/− and control mice) [1] | FC (fold-change of expression between Npc1−/− and control mice) (1 week of age) | FC (fold-change of expression between Npc1−/− and control mice) (3 weeks of age)
Nid1 (protein, UniProt P10493 29-1245, looked up) Nidogen-1: LNRQELFPFGPGQGDLELEAGDDVVSPSLELIGELSFYDRTDITSVYVTTNGIIAMSEPPATEYHPGTFPPSFGSVAPFLADLDTTDGLGNVYYREDLSPFIIQMAAEYVQRGFPEVSFQPTSVVVVTWESVAPYGGPSSSPAEEGKRNTFQAVLASSNSSSYAIFLYPEDGLQFFTTFSKKDESQVPAVVGFSKGLVGFLWKSNGAYNIFANDRESIENLAKSSNAGHQGVWVFEIGSPATAKGVVSADVNLDLDDDGADYEDEDYDLVTSHLGLEDVATPSPSHSPRRGYPDPHNVPRILSPGYEATERPRGVPTERTRSFQLPAERFPQHHPQVIDVDEVEETGVVFSYNTGSQQTCANNRHQCSVHAECRDYATGFCCRCVANYTGNGRQCVAEGSPQRVNGKVKGRIFVGSSQVPVVFENTDLHSYVVMNHGRSYTAISTIPETVGYSLLPLAPIGGIIGWMFAVEQDGFKNGFSITGGEFTRQAEVTFLGHPGKLVLKQQFSGIDEHGHLTISTELEGRVPQIPYGASVHIEPYTELYHYSSSVITSSSTREYTVMEPDQDGAAPSHTHIYQWRQTITFQECAHDDARPALPSTQQLSVDSVFVLYNKEERILRYALSNSIGPVRDGSPDALQNPCYIGTHGCDSNAACRPGPGTQFTCECSIGFRGDGQTCYDIDECSEQPSRCGNHAVCNNLPGTFRCECVEGYHFSDRGTCVAAEDQRPINYCETGLHNCDIPQRAQCIYMGGSSYTCSCLPGFSGDGRACRDVDECQHSRCHPDAFCYNTPGSFTCQCKPGYQGDGFRCMPGEVSKTRCQLEREHILGAAGGADAQRPTLQGMFVPQCDEYGHYVPTQCHHSTGYCWCVDRDGRELEGSRTPPGMRPPCLSTVAPPIHQGPVVPTAVIPLPPGTHLLFAQTGKIERLPLERNTMKKTEAKAFLHIPAKVIIGLAFDCVDKVVYWTDISEPSIGRASLHGGEPTTIIRQDLGSPEGIALDHLGRTIFWTDSQLDRIEVAKMDGTQRRVLFDTGLVNPRGIVTDPVRGNLYWTDWNRDNPKIETSHMDGTNRRILAQDNLGLPNGLTFDAFSSQLCWVDAGTHRAECLNPAQPGRRKVLEGLQYPFAVTSYGKNLYYTDWKTNSVIAMDLAISKEMDTFHPHKQTRLYGITIALSQCPQGHNYCSVNNGGCTHLCLPTPGSRTCRCPDNTLGVDCIERK | 1.63 | 2.15 | 2.64 | 1.96 | – | –
Slpi (protein, UniProt P97430 26-131, looked up) Antileukoproteinase: GKNDAIKIGACPAKKPAQCLKLEKPQCRTDWECPGKQRCCQDACGSKCVNPVPIRKPVWRKPGRCVKTQARCMMLNPPNVCQRDGQCDGKYKCCEGICGKVCLPPM | – | 1.52 | 1.87 | 1.50 | 1.42 | –
Tgfbi (protein, UniProt P82198 24-683, looked up) Transforming growth …: GPAKSPYQLVLQHSRLRGRQHGPNVCAVQKVIGTNKKYFTNCKQWYQRKICGKSTVISYECCPGYEKVPGEKGCPAALPLSNLYETMGVVGSTTTQLYTDRTEKLRPEMEGPGSFTIFAPSNEAWSSLPAEVLDSLVSNVNIELLNALRYHMVDRRVLTDELKHGMTLTSMYQNSNIQIHHYPNGIVTVNCARLLKADHHATNGVVHLIDKVISTITNNIQQIIEIEDTFETLRAAVAASGLNTVLEGDGQFTLLAPTNEAFEKIPAETLNRILGDPEALRDLLNNHILKSAMCAEAIVAGMSMETLGGTTLEVGCSGDKLTINGKAVISNKDILATNGVIHFIDELLIPDSAKTLLELAGESDVSTAIDILKQAGLDTHLSGKEQLTFLAPLNSVFKDGVPRIDAQMKTLLLNHMVKEQLASKYLYSGQTLDTLGGKKLRVFVYRNSLCIENSCIAAHDKRGRFGTLFTMDRMLTPPMGTVMDVLKGDNRFSMLVAAIQSAGLMEILNREGVYTVFAPTNEAFQAMPPEELNKLLANAKELTNILKYHIGDEILVSGGIGALVRLKSLQGDKLEVSSKNNVVSVNKEPVAETDIMATNGVVYAINTVLQPPANRPQERGDELADSALEIFKQASAYSRAAQRSVRLAPVYQRLLERMKH | – | 1.61 | 1.54 | 1.76 | – | 1.34
Nrp1 (protein, UniProt P97333 22-923, looked up) Neuropilin-1: FRSDKCGGTIKIENPGYLTSPGYPHSYHPSEKCEWLIQAPEPYQRIMINFNPHFDLEDRDCKYDYVEVIDGENEGGRLWGKFCGKIAPSPVVSSGPFLFIKFVSDYETHGAGFSIRYEIFKRGPECSQNYTAPTGVIKSPGFPEKYPNSLECTYIIFAPKMSEIILEFESFDLEQDSNPPGGMFCRYDRLEIWDGFPEVGPHIGRYCGQKTPGRIRSSSGVLSMVFYTDSAIAKEGFSANYSVLQSSISEDFKCMEALGMESGEIHSDQITASSQYGTNWSVERSRLNYPENGWTPGEDSYKEWIQVDLGLLRFVTAVGTQGAISKETKKKYYVKTYRVDISSNGEDWISLKEGNKAIIFQGNTNPTDVVLGVFSKPLITRFVRIKPVSWETGISMRFEVYGCKITDYPCSGMLGMVSGLISDSQITASNQADRNWMPENIRLVTSRTGWALPPSPHPYTNEWLQVDLGDEKIVRGVIIQGGKHRENKVFMRKFKIAYSNNGSDWKTIMDDSKRKAKSFEGNNNYDTPELRTFSPLSTRFIRIYPERATHSGLGLRMELLGCEVEAPTAGPTTPNGNPVDECDDDQANCHSGTGDDFQLTGGTTVLATEKPTIIDSTIQSEFPTYGFNCEFGWGSHKTFCHWEHDSHAQLRWSVLTSKTGPIQDHTGDGNFIYSQADENQKGKVARLVSPVVYSQSSAHCMTFWYHMSGSHVGTLRVKLRYQKPEEYDQLVWMVVGHQGDHWKEGRVLLHKSLKLYQVIFEGEIGKGNLGGIAVDDISINNHISQEDCAKPTDLDKKNTEIKIDETGSTPGYEGEGEGDKNISRKPGNVLKTLDPILITIIAMSALGVLLGAVCGVVLYCACWHNGMSERNLSALENYNFELVDGVKLKKDKLNPQSNYSEA | −1.73 | −2.08 | −2.54 | −2.11 | – | –
Postn (protein, UniProt Q62009 24-838, looked up) Periostin: NSYYDKVLAHSRIRGRDQGPNVCALQQILGTKKKYFSSCKNWYQGAICGKKTTVLYECCPGYMRMEGMKGCPAVMPIDHVYGTLGIVGATTTQHYSDVSKLREEIEGKGSYTYFAPSNEAWENLDSDIRRGLENNVNVELLNALHSHMVNKRMLTKDLKHGMVIPSMYNNLGLFINHYPNGVVTVNCARVIHGNQIATNGVVHVIDRVLTQIGTSIQDFLEAEDDLSSFRAAAITSDLLESLGRDGHFTLFAPTNEAFEKLPRGVLERIMGDKVASEALMKYHILNTLQCSEAITGGAVFETMEGNTIEIGCEGDSISINGIKMVNKKDIVTKNGVIHLIDEVLIPDSAKQVIELAGKQQTTFTDLVAQLGLASSLKPDGEYTLLAPVNNAFSDDTLSMDQRLLKLILQNHILKVKVGLSDLYNGQILETIGGKQLRVFVYRTAICIENSCMVRGSKQGRNGAIHIFREIIQPAEKSLHDKLRQDKRFSIFLSLLEAADLKDLLTQPGDWTLFAPTNDAFKGMTSEERELLIGDKNALQNIILYHLTPGVYIGKGFEPGVTNILKTTQGSKIYLKGVNETLLVNELKSKESDIMTTNGVIHVVDKLLYPADIPVGNDQLLELLNKLIKYIQIKFVRGSTFKEIPMTVYTTKIITKVVEPKIKVIQGSLQPIIKTEGPAMTKIQIEGDPDFRLIKEGETVTEVIHGEPVIKKYTKIIDGVPVEITEKQTREERIITGPEIKYTRISTGGGETGETLQKFLQKEVSKVTKFIEGGDGHLFEDEEIKRLLQGDTPAKKIPANKRVQGPRRRSREGRSQ | 1.44 | 1.58 | 2.04 | 1.84 | – | –
Selplg (protein, UniProt Q62170 42-397, looked up) P-selectin glycoprotein …: QVVGDDDFEDPDYTYNTDPPELLKNVTNTVAAHPELPTTVVMLERDSTSAGTSERATEKIATTDPTAPGTGGTAVGMLSTDSATQWSLTSVETVQPASTEVETSQPAPMEAETSQPAPMEAETSQPAPMEAETSQPAPMEADTSQPAPMEAETSQPAPNEAETSKPAPTEAETSKPAPTEAETTQLPRIQAVKTLFTTSAATEVPSTEPTTMETASTESNESTIFLGPSVTHLPDSGLKKGLIVTPGNSPAPTLPGSSDLIPVKQCLLIILILASLATIFLVCTVVLAVRLSRKTHMYPVRNYSPTEMICISSLLPEGGDGAPVTANGGLPKVQDLKTEPSGDRDGDDLTLHSFLP | – | 1.49 | 1.72 | 2.00 | – | 1.32
Serpina12 (protein, UniProt Q7TMF5 21-413, looked up) Serpin A12: LQDRDAPDMYDSPVRVQEWRGKKDARQLARHNMEFGFKLLQRLASNSPQGNIFLSPLSISTAFSMLSLGAQNSTLEEIREGFNFKEMSNWDVHAAFHYLLHKLNQETEDTKMNLGNALFMDQKLRPQQRFLNLAKNVYDADMVLTNFQDLENTQKDINRYISQKTHSRIKNMVKSIDPGTVMILTNYIYFRGRWQYEFDPKQTKEEEFFIEKGKTVKVPMMFQRGLYDMAYDSQLSCTILEIPYRGNITATFVLPDNGKLKLLEQGLQADIFAKWKSLLSKRVVDVWVPKLRISSTYNMKKVLSRLGISKIFEENGDLTRISSHRSLKVGEAVHKAELKMDEKGMEGAAGSGAQTLPMETPRHMKLDRPFLMMIYENFMPSMVFLARIYDPSG | – | −1.53 | −1.44 | −1.39 | – | −1.52
Tfpi2 (protein, UniProt O35536 23-230, looked up) Tissue factor pathway …: LTSVSAQGNNLEICLLPLDAGPCQALIPKFYYDRDQQKCRRFNYGGCLGNANNFHSRDLCQQTCGSIEKVPPVCRSELKTYPCDKPNIRFFFNLNTMTCEPLRPGLCSRTINVFSEEATCKGLCEPRKHIPSFCSSPKDEGLCSANVTRFYFNSRNKTCETFTYTGCGGNENNFYYLDACHRACVKGWKKPKRWKIGDFLPRFWKHLS | – | −1.73 | −3.05 | −1.57 | – | −1.38

The expression values are mRNA levels of the gene; the protein chain is shown to identify it.
